Residue numbers refer to the chain shown, from its start. These are yes or no findings as the source states them, for the method shown. Some entries that bind do so weakly or less than the wild type. One block for each binder: values may come before it.
Assays:
[1] = biological target: human B7-H3 expressed by Mile Sven 1 cells stably transfected to express human B7-H3 (MS1-B7-H3) (human) (UniProt Q5ZPR3); assay: clone sequenced from the yeast-display population selected by FACS on MS1-B7-H3 cell lysate (yeast-displayed form, not the purified His6 protein)
[2] = biological target: human B7-H3 expressed by Mile Sven 1 cells stably transfected to express human B7-H3 (MS1-B7-H3) (human) (UniProt Q5ZPR3); assay: flow cytometry on MS1-B7-H3 cells
[3] = biological target: human B7-H3 expressed by Mile Sven 1 cells stably transfected to express human B7-H3 (MS1-B7-H3) (human) (UniProt Q5ZPR3); assay: clone sequenced from the yeast-display population selected by FACS on MS1-B7-H3 cell lysate

Sequences of proteins named here, by UniProt entry; tags and fusion partners are left off. Residues count along the entry.
UniProt Q5ZPR3, residues 29-534: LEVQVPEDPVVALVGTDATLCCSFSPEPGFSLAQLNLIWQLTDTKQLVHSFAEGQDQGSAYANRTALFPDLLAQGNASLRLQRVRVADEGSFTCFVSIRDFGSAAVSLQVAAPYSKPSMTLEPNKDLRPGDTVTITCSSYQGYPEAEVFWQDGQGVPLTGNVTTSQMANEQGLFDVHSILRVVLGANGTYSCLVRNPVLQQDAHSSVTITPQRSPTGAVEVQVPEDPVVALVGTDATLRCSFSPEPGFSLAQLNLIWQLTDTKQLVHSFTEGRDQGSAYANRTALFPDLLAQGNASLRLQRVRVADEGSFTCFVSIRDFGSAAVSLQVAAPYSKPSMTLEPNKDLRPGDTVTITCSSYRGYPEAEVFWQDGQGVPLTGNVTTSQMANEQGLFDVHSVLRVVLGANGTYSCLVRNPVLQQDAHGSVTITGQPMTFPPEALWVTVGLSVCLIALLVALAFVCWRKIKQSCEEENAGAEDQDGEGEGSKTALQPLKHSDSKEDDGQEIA

- binding [1]: binds
- binding [2]: binds
B1: Gp2 1.4.3 (designed binder)
chain: KFWATVQHVYSDFGFEVPVYAATLDEALQLAEVRYANSIFMVTRVRPHHHHHH
notes: Purified from E. coli (pET-24b, NheI/BamHI cloning)

- binding [1]: binds
- binding [2]: binds
B2: Gp2 1.4.4 (designed binder)
chain: B1 chain with V17A, R34Q, M41T
notes: as for B1

- binding [3]: binds
Binder: KFWATVQHVYSDFGFEAPVYAATLDEALQLAEVQYANSIFMVTRVRP (designed binder) [Gp2 1.4.1]

- binding [3]: binds
Binder: KFWATVQHVYSDFGFEAPVYAATLDEALQLAEVQYANSIFMVARVRP (designed binder) [Gp2 1.4.2]
